Like-named read-outs stand apart in the source and are kept apart here.
Test system: L3055 BL cells
Experiment: DNA synthesis by [3H]-thymidine incorporation in L3055 cells
Type: cell-based
Procedure: DNA synthesis was determined by measuring ^3H-thymidine ([^3H]Tdr; Amersham, UK) incorporation into cellular DNA. Cells were cultured in 200 μL of supplemented medium at densities and for times indicated below in flat-bottomed, 96-well tissue culture plates (Becton Dickinson, Oxford, U K) then pulsed for the final 4 h with 50 μl of 10 μCi/ml [^3H]Tdr before harvesting on a Skatron cell harvester (Helis Bio Ltd, Newmarket, UK).

Question: How did the “influence of pre-treatment on 5-HT-dependent inhibition of DNA synthesis (in words)” value (cells pre-treated with agent before 5-HT) turn out when CN1C2CCCC1CC(NC(=O)c1nn(C)c3ccccc13)C2 (centres unmarked) [granisetron] was run?
Answer: Its value is “failed to influence the ability of 5-HT to inhibit DNA synthesis”.

Question: CC[C@@H](CO)NC(=O)[C@@H]1C=C2c3cccc4c3c(cn4C)C[C@H]2N(C)C1 [methysergide] was tested. Which “influence of pre-treatment on 5-HT-dependent inhibition of DNA synthesis (in words)” value did it give?
Answer: Its value is “failed to influence the ability of 5-HT to inhibit DNA synthesis”.
